# Some of these results come from one statement about several compounds together.
# System: eight human cancer cell lines
# Assay: cell proliferation inhibitory activity, WST-8, whole panel (Test Example 2)
# Format: cell-based
# Settings: against many of the cancer cell lines of Table 2
row,SMILES,cell proliferation inhibitory activity compared with M-COPA (in words)
1,"C[C@@H]1[C@@H](O)[C@H](C)C[C@@H]2C=C[C@H](C)[C@H](/C=C/C=C(\Br)C(=O)NCc3cnco3)[C@@H]12 [RS1, (2Z,4E)-2-Bromo-5-((1′S,2′S,4′aR,6′R,7′S,8′S,8′aS)-7′-hydroxy-2′,6′,8′-trimethyl-1′,2′,4′a,5′,6′,7′,8′,8′a-octahydronaphthalen-1′-yl)-N-(oxazol-5″-ylmethyl)penta-2,4-dienamide]",significantly superior to that of M-COPA
2,"C[C@@H]1[C@@H](O)[C@H](C)C[C@@H]2C=C[C@H](C)[C@H](/C=C/C=C(\Br)C(=O)NCc3cncs3)[C@@H]12 [RS2, (2Z,4E)-2-Bromo-5-((1′S,2′S,4′aR,6′R,7′S,8′S,8′aS)-7′-hydroxy-2′,6′,8′-trimethyl-1′,2′,4′a,5′,6′,7′,8′,8′a-octahydronaphthalen-1′-yl)-N-(thiazol-5″-ylmethyl)penta-2,4-dienamide]",significantly superior to that of M-COPA
3,"C[C@@H]1[C@@H](O)[C@H](C)C[C@@H]2C=C[C@H](C)[C@H](/C=C/C=C(\Br)C(=O)NCc3cocn3)[C@@H]12 [RS3, (2Z,4E)-2-Bromo-5-((1′S,2′S,4′aR,6′R,7′S,8′S,8′aS)-7′-hydroxy-2′,6′,8′-trimethyl-1′,2′,4′a,5′,6′,7′,8′,8′a-octahydronaphthalen-1′-yl)-N-(oxazol-4″-ylmethyl)penta-2,4-dienamide]",significantly superior to that of M-COPA
4,"C[C@@H]1[C@@H](O)[C@H](C)C[C@@H]2C=C[C@H](C)[C@H](/C=C/C=C(\Br)C(=O)NCc3nccs3)[C@@H]12 [RS4, (2Z,4E)-2-Bromo-5-((1′S,2′S,4′aR,6′R,7′S,8′S,8′aS)-7′-hydroxy-2′,6′,8′-trimethyl-1′,2′,4′a,5′,6′,7′,8′,8′a-octahydronaphthalen-1′-yl)-N-(thiazol-2″-ylmethyl)penta-2,4-dienamide]",significantly superior to that of M-COPA
5,"C[C@@H]1[C@@H](O)[C@H](C)C[C@@H]2C=C[C@H](C)[C@H](/C=C/C=C(\Br)C(=O)NCc3cccnc3)[C@@H]12 [RS5, (2Z,4E)-2-Bromo-5-((1′S,2′S,4′aR,6′R,7′S,8′S,8′aS)-7′-hydroxy-2′,6′,8′-trimethyl-1′,2′,4′a,5′,6′,7′,8′,8′a-octahydronaphthalen-1′-yl)-N-(pyridin-3″-ylmethyl)penta-2,4-dienamide]",significantly superior to that of M-COPA
6,"C[C@H]1[C@@H]2[C@@H](/C=C/C=C(\Br)C(=O)NCc3cncs3)[C@@H](C)C=C[C@H]2CC[C@@H]1O [RS6, (2Z,4E)-2-Bromo-5-((1′S,2′S,4′aR,7′S,8′S,8′aS)-7′-hydroxy-2′,8′-dimethyl-1′,2′,4′a,5′,6′,7′,8′,8′a-octahydronaphthalen-1′-yl)-N-(thiazol-5″-ylmethyl)penta-2,4-dienamide]",significantly superior to that of M-COPA
7,"C[C@H]1[C@@H]2[C@@H](/C=C/C=C(\Br)C(=O)NCc3cccnc3)[C@@H](C)C=C[C@H]2CC[C@@H]1O [RS7, (2Z,4E)-2-Bromo-5-((1′S,2′S,4′aR,7′S,8′S,8′aS)-7′-hydroxy-2′,8′-dimethyl-1′,2′,4′a,5′,6′,7′,8′,8′a-octahydronaphthalen-1′-yl)-N-(pyridin-3″-ylmethyl)penta-2,4-dienamide]",significantly superior to that of M-COPA

# Source: patent US12570618B2, “Compound, production method therefor, and pharmaceutical composition” (TOKYO UNIVERSITY OF SCIENCE FOUNDATION, priority 2021, dated 2026)
